Some of these results come from one statement about several compounds together.
These compounds were tested on Phakopsora pachyrhizi (assay: Curative control of soy bean rust on soy beans (green house test)). Details: 300 ppm spray, soy bean seedlings, assessed 14 days after treatment, untreated plants 60% infected.
Format: in vivo
With `CCCC1COC(Cn2cncn2)(c2ccc(Oc3ccc(Cl)cc3F)cc2)O1` (stereo not shown) [Example 15, 1-{2-[4-(4-Chloro-2-fluoro-phenoxy)-phenyl]-4-propyl-[1,3]dioxolan-2-ylmethyl}-1H-[1,2,4]triazole] the “infection (fungal attack on the leaves, % diseased leaf area)” value was “at most 15%”.
In the case of `FC(F)(F)c1cc(Oc2ccccc2Cl)ccc1C1(Cn2cncn2)OCCO1` [Example 46, 1-{2-[4-(2-Chloro-phenoxy)-2-trifluoromethyl-phenyl]-[1,3]dioxolan-2-ylmethyl}-1H-[1,2,4]triazole], the “infection (fungal attack on the leaves, % diseased leaf area)” value is reported as “at most 15%”.
For `CC1COC(Cn2cncn2)(c2ccc(Oc3ccccc3)cc2F)O1` (stereo not shown) [Example 33, 1-{2-[2-Fluoro-4-phenoxy-phenyl]-4-methyl-[1,3]dioxolan-2-ylmethyl}-1H-[1,2,4]triazole], the “infection (fungal attack on the leaves, % diseased leaf area)” value was “at most 15%”.
With `CC1COC(Cn2cncn2)(c2ccc(Oc3ccc(Cl)cc3F)cc2)O1` (stereo not shown) [Example 3, 1-{2-[4-(4-Chloro-2-fluoro-phenoxy)-phenyl]-4-methyl-[1,3]dioxolan-2-ylmethyl}-1H-[1,2,4]triazole] the “infection (fungal attack on the leaves, % diseased leaf area)” value was “at most 15%”.
With `CC1COC(Cn2cncn2)(c2cc(F)c(Oc3ccccc3Cl)cc2Cl)O1` (stereo not shown) [Example 48, 1-{2-[2-Chloro-4-(2-chloro-phenoxy)-5-fluoro-phenyl]-4-methyl-[1,3]dioxolan-2-ylmethyl}-1H-[1,2,4]triazole] the “infection (fungal attack on the leaves, % diseased leaf area)” value was “at most 15%”.
For `CC1COC(Cn2cncn2)(c2ccc(Oc3ccc(Cl)cc3)cc2F)O1` (stereo not shown) [Example 34, 1-{2-[4-(4-Chloro-phenoxy)-2-fluoro-phenyl]-4-methyl-[1,3]dioxolan-2-ylmethyl}-1H-[1,2,4]triazole], the “infection (fungal attack on the leaves, % diseased leaf area)” value was “at most 15%”.
With `CC1COC(Cn2cncn2)(c2ccc(Oc3ccc(F)cc3F)cc2)O1` (stereo not shown) [Example 4, 1-{2-[4-(2,4-Difluoro-phenoxy)-phenyl]-4-methyl-[1,3]dioxolan-2-ylmethyl}-1H-[1,2,4]triazole] the “infection (fungal attack on the leaves, % diseased leaf area)” value was “at most 15%”.
For `CCCC1COC(Cn2cncn2)(c2ccc(Oc3cc(Cl)ccc3F)cc2)O1` (stereo not shown) [Example 13, 1-{2-[4-(5-Chloro-2-fluoro-phenoxy)-phenyl]-4-propyl-[1,3]dioxolan-2-ylmethyl}-1H-[1,2,4]triazole], the “infection (fungal attack on the leaves, % diseased leaf area)” value was “at most 15%”.
`CC1COC(Cn2ncnc2S)(c2cc(F)c(Oc3ccccc3)c(F)c2)O1` (stereo not shown) [Example 68, 2-{2-[3,5-Difluoro-4-phenoxy-phenyl]-4-methyl-[1,3]dioxolan-2-yl-methyl}-2H-[1,2,4]triazole-3-thiol] was tested, and the “infection (fungal attack on the leaves, % diseased leaf area)” value was “at most 15%”.
For `CC1COC(Cn2cncn2)(c2cc(F)c(Oc3ccc(Cl)cc3F)cc2Cl)O1` (stereo not shown) [Example 31, 1-{2-[2-Chloro-4-(4-chloro-2-fluoro-phenoxy)-5-fluoro-phenyl]-4-methyl-[1,3]dioxolan-2-ylmethyl}-1H-[1,2,4]triazole], the “infection (fungal attack on the leaves, % diseased leaf area)” value was “at most 15%”.
In the case of `Cc1cc(Oc2ccccc2Cl)ccc1C1(Cn2cncn2)OCC(C)O1` (stereo not shown) [Example 30, 1-{2-[4-(2-Chloro-phenoxy)-2-methyl-phenyl]-4-methyl-[1,3]dioxolan-2-ylmethyl}-1H-[1,2,4]triazole], the “infection (fungal attack on the leaves, % diseased leaf area)” value is reported as “at most 15%”.
In the case of `CC1COC(Cn2ncnc2S)(c2ccc(Oc3ccc(Cl)cc3)c(F)c2)O1` (stereo not shown) [Example 69, 2-{2-[4-(4-Chloro-phenoxy)-3-fluoro-phenyl]-4-methyl-[1,3]dioxolan-2-yl-methyl}-2H-[1,2,4]triazole-3-thiol], the “infection (fungal attack on the leaves, % diseased leaf area)” value is reported as “at most 15%”.
`CCCC1COC(Cn2cncn2)(c2ccc(Oc3c(F)cccc3F)cc2)O1` (stereo not shown) [Example 10, 1-{2-[4-(2,6-Difluoro-phenoxy)-phenyl]-4-propyl-[1,3]dioxolan-2-ylmethyl}-1H-[1,2,4]triazole] was tested, and the “infection (fungal attack on the leaves, % diseased leaf area)” value was “at most 15%”.
In the case of `CC(C)(C)C1COC(Cn2cncn2)(c2ccc(Oc3ccc(Cl)cc3)cc2Cl)OC1` (stereo not shown) [Example 52, 1-{2-[2-chloro-4-(4-chloro-phenoxy)-phenyl]-5-tert-butyl-[1,3]dioxan-2-ylmethyl}-1H-[1,2,4]triazole], the “infection (fungal attack on the leaves, % diseased leaf area)” value is reported as “at most 15%”.
In the case of `CCCC1COC(Cn2cncn2)(c2ccc(Oc3cc(F)ccc3F)cc2)O1` (stereo not shown) [Example 18, 1-{2-[4-(2,5-Difluoro-phenoxy)-phenyl]-4-propyl-[1,3]dioxolan-2-ylmethyl}-1H-[1,2,4]triazole], the “infection (fungal attack on the leaves, % diseased leaf area)” value is reported as “at most 15%”.
In the case of `CC1COC(Cn2cncn2)(c2ccc(Oc3ccc(Cl)cc3)c(F)c2)O1` (stereo not shown) [Example 32, 1-{2-[4-(4-Chloro-phenoxy)-3-fluoro-phenyl]-4-methyl-[1,3]dioxolan-2-ylmethyl}-1H-[1,2,4]triazole], the “infection (fungal attack on the leaves, % diseased leaf area)” value is reported as “at most 15%”.
With `CCC1COC(Cn2cncn2)(c2ccc(Oc3c(F)cccc3F)cc2)O1` (stereo not shown) [Example 9, 1-{2-[4-(2,6-Difluoro-phenoxy)-phenyl]-4-ethyl-[1,3]dioxolan-2-ylmethyl}-1H-[1,2,4]triazole] the “infection (fungal attack on the leaves, % diseased leaf area)” value was “at most 15%”.
In the case of `Cc1cc(Oc2cc(Cl)cc(Cl)c2)ccc1C1(Cn2cncn2)OCC(C)O1` (stereo not shown) [Example 29, 1-{2-[4-(3,5-Dichloro-phenoxy)-2-methyl-phenyl]-4-methyl-[1,3]dioxolan-2-ylmethyl}-1H-[1,2,4]triazole], the “infection (fungal attack on the leaves, % diseased leaf area)” value is reported as “at most 15%”.
With `CCC1COC(Cn2cncn2)(c2ccc(Oc3cc(Cl)ccc3F)cc2)O1` (stereo not shown) [Example 12, 1-{2-[4-(5-Chloro-2-fluoro-phenoxy)-phenyl]-4-ethyl-[1,3]dioxolan-2-ylmethyl}-1H-[1,2,4]triazole] the “infection (fungal attack on the leaves, % diseased leaf area)” value was “at most 15%”.
In the case of `CC1COC(Cn2cncn2)(c2ccc(Oc3c(F)cccc3F)cc2Cl)O1` (stereo not shown) [Example 20, 1-{2-[2-Chloro-4-(2,6-difluoro-phenoxy)-phenyl]-4-methyl-[1,3]dioxolan-2-ylmethyl}-1H-[1,2,4]triazole], the “infection (fungal attack on the leaves, % diseased leaf area)” value is reported as “at most 15%”.

These compounds were tested on Septoria tritici (assay: Preventative control of leaf blotch on wheat (green house test)). Details: 300 ppm spray, wheat seedlings, assessed after 4 weeks, untreated plants 90% infected.
Format: in vivo
`CCCC1COC(Cn2cncn2)(c2ccc(Oc3ccc(Cl)cc3F)cc2)O1` (stereo not shown) [Example 15, 1-{2-[4-(4-Chloro-2-fluoro-phenoxy)-phenyl]-4-propyl-[1,3]dioxolan-2-ylmethyl}-1H-[1,2,4]triazole] was tested, and the “infection (fungal attack on the leaves, % diseased leaf area)” value was “at most 15%”.
For `CC1COC(Cn2cncn2)(c2ccc(Oc3ccccc3)c(F)c2)O1` (stereo not shown) [Example 35, 1-{2-[3-Fluoro-4-phenoxy-phenyl]-4-methyl-[1,3]dioxolan-2-ylmethyl}-1H-[1,2,4]triazole], the “infection (fungal attack on the leaves, % diseased leaf area)” value was “at most 15%”.
With `Cc1cc(Oc2ccc(Cl)cc2F)ccc1C1(Cn2cncn2)OCC(C)O1` (stereo not shown) [Example 23, 1-{2-[4-(4-chloro-2-fluoro-phenoxy)-2-methyl-phenyl]-4-methyl-[1,3]dioxolan-2-ylmethyl}-1H-[1,2,4]triazole] the “infection (fungal attack on the leaves, % diseased leaf area)” value was “at most 15%”.
With `CC1COC(Cn2cncn2)(c2cc(F)c(Oc3ccc(Cl)cc3)cc2F)O1` (stereo not shown) [Example 37, 1-{2-[4-(4-Chloro-phenoxy)-2,5-difluoro-phenyl]-4-methyl-[1,3]dioxolan-2-ylmethyl}-1H-[1,2,4]triazole] the “infection (fungal attack on the leaves, % diseased leaf area)” value was “at most 15%”.
With `CC1COC(Cn2cncn2)(c2ccc(Oc3ccc(Cl)cc3Cl)cc2C(F)(F)F)O1` (stereo not shown) [Example 44, 1-{2-[4-(2,4-Dichloro-phenoxy)-2-trifluoromethyl-phenyl]-4-methyl-[1,3]dioxolan-2-ylmethyl}-1H-[1,2,4]triazole] the “infection (fungal attack on the leaves, % diseased leaf area)” value was “at most 15%”.
